Measurements: publication PMC7350744
No constants are given. Whether binding was seen depends on the method and setting. Binding seen in cells or lysates may run through a third protein. Some entries that bind do so weakly or less than the wild type.

Amino acid sequences for entries named in this document (tags omitted).
UniProt O14497: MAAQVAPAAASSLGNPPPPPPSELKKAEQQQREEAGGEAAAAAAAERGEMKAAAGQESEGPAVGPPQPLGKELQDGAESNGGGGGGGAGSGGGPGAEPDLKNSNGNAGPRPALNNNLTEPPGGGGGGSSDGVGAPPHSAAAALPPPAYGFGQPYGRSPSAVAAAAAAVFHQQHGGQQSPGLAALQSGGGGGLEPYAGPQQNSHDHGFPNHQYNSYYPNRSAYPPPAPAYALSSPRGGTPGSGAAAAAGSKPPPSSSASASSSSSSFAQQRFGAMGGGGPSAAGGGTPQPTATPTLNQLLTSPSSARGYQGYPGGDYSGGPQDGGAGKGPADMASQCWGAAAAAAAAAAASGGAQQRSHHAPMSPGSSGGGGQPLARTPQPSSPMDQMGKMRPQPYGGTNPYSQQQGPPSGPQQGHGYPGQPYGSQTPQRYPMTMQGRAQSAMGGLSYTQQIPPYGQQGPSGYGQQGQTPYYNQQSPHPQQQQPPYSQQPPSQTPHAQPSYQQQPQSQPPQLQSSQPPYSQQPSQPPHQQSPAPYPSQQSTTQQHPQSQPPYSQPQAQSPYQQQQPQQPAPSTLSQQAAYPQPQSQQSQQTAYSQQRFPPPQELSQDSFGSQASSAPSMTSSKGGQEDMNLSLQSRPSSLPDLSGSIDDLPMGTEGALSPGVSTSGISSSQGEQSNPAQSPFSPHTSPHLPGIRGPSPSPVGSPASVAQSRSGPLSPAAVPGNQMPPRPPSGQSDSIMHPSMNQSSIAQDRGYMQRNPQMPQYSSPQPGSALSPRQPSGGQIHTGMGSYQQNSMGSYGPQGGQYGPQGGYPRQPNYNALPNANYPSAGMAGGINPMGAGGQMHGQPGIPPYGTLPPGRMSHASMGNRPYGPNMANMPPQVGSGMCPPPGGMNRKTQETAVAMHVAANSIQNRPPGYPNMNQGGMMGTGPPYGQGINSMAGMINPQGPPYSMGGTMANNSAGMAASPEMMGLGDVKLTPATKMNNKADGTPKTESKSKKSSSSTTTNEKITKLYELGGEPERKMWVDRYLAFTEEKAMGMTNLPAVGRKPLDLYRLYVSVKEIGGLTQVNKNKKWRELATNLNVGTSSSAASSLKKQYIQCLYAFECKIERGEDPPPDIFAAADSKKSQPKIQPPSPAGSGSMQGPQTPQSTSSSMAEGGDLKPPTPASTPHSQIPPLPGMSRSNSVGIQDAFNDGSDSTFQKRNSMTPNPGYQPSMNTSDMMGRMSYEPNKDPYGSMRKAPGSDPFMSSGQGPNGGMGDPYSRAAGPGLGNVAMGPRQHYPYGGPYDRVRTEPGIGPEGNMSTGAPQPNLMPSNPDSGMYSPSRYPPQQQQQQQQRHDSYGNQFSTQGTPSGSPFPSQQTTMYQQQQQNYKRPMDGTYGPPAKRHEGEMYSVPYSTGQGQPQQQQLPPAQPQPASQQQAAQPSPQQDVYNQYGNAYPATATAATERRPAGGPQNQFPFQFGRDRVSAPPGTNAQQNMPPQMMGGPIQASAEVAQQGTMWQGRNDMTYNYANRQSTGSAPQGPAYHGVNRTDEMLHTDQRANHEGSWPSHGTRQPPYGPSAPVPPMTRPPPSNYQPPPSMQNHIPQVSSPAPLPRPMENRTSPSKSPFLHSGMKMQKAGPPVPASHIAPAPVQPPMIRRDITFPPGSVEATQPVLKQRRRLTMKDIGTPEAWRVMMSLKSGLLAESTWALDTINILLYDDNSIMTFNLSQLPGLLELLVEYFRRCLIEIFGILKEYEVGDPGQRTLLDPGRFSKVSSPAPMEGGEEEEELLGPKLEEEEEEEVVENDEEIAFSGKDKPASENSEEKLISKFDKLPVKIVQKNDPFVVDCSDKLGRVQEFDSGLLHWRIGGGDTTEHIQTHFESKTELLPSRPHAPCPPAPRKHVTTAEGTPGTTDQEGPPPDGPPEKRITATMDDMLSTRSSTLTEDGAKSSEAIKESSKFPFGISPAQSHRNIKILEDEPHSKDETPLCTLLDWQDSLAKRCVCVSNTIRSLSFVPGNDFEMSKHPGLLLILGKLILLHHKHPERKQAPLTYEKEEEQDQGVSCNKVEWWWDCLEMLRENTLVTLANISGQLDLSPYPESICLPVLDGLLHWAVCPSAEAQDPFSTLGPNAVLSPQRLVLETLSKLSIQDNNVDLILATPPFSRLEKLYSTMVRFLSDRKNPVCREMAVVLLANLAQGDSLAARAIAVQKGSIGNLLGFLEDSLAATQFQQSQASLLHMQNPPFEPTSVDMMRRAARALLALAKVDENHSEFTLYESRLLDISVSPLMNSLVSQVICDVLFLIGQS

B1: repressor element-1 silencing transcription/neuron-restrictive silencer factor (REST/NRSF) (protein, UniProt Q13127 1-1097)
chain: MATQVMGQSSGGGGLFTSSGNIGMALPNDMYDLHDLSKAELAAPQLIMLANVALTGEVNGSCCDYLVGEERQMAELMPVGDNNFSDSEEGEGLEESADIKGEPHGLENMELRSLELSVVEPQPVFEASGAPDIYSSNKDLPPETPGAEDKGKSSKTKPFRCKPCQYEAESEEQFVHHIRVHSAKKFFVEESAEKQAKARESGSSTAEEGDFSKGPIRCDRCGYNTNRYDHYTAHLKHHTRAGDNERVYKCIICTYTTVSEYHWRKHLRNHFPRKVYTCGKCNYFSDRKNNYVQHVRTHTGERPYKCELCPYSSSQKTHLTRHMRTHSGEKPFKCDQCSYVASNQHEVTRHARQVHNGPKPLNCPHCDYKTADRSNFKKHVELHVNPRQFNCPVCDYAASKKCNLQYHFKSKHPTCPNKTMDVSKVKLKKTKKREADLPDNITNEKTEIEQTKIKGDVAGKKNEKSVKAEKRDVSKEKKPSNNVSVIQVTTRTRKSVTEVKEMDVHTGSNSEKFSKTKKSKRKLEVDSHSLHGPVNDEESSTKKKKKVESKSKNNSQEVPKGDSKVEENKKQNTCMKKSTKKKTLKNKSSKKSSKPPQKEPVEKGSAQMDPPQMGPAPTEAVQKGPVQVEPPPPMEHAQMEGAQIRPAPDEPVQMEVVQEGPAQKELLPPVEPAQMVGAQIVLAHMELPPPMETAQTEVAQMGPAPMEPAQMEVAQVESAPMQVVQKEPVQMELSPPMEVVQKEPVQIELSPPMEVVQKEPVKIELSPPIEVVQKEPVQMELSPPMGVVQKEPAQREPPPPREPPLHMEPISKKPPLRKDKKEKSNMQSERARKEQVLIEVGLVPVKDSWLLKESVSTEDLSPPSPPLPKENLREEASGDQKLLNTGEGNKEAPLQKVGAEEADESLPGLAANINESTHISSSGQNLNTPEGETLNGKHQTDSIVCEMKMDTDQNTRENLTGINSTVEEPVSPMLPPSAVEEREAVSKTALASPPATMAANESQEIDEDEGIHSHEGSDLSDNMSEGSDDSGLHGARPVPQESSRKNAKEALAVKAAKGDFVCIFCDRSFRKGKDYSKHLNRHLVNVYYLEEAAQGQE
B2: TBXT (T) (protein, UniProt O15178 1-435)
chain: MSSPGTESAGKSLQYRVDHLLSAVENELQAGSEKGDPTERELRVGLEESELWLRFKELTNEMIVTKNGRRMFPVLKVNVSGLDPNAMYSFLLDFVAADNHRWKYVNGEWVPGGKPEPQAPSCVYIHPDSPNFGAHWMKAPVSFSKVKLTNKLNGGGQIMLNSLHKYEPRIHIVRVGGPQRMITSHCFPETQFIAVTAYQNEEITALKIKYNPFAKAFLDAKERSDHKEMMEEPGDSQQPGYSQWGWLLPGTSTLCPPANPHPQFGGALSLPSTHSCDRYPTLRSHRSSPYPSPYAHRNNSPTYSDNSPACLSMLQSHDNWSSLGMPAHPSMLPVSHNASPPTSSSQYPSLWSVSNGAVTPGSQAAAVSNGLGAQFFRGSPAHYTPLTHPVSAPSSSGSPLYEGAAAATDIVDSQYDAAAQGRLIASWTPVSPPSM

Biological target: ARID1A (human (endogenous in H9 hESCs)) (UniProt O14497)
Assay: co-IP; endogenous proteins from H9 hESC lysates (undifferentiated T0, day 2 or day 6 of cardiac differentiation); Pierce Classic Magnetic IP/Co-IP Kit; detected by Western blotting; IP with anti-ARID1A antibody and, in the reverse direction, of T or MEF2C

Binder	binding
B1	binds
B2	binds
